16 molecules from doi:10.1101/2025.03.09.642194 can be followed below.

Sequences of proteins named here, by UniProt entry; tags and fusion partners are left off. A change or cut given only in a name is not applied to a line headed by its entry. A line that says so, or that is headed by a name, gives the form on record, which may keep a tag or linker. Residues count along the entry.
UniProt P49817: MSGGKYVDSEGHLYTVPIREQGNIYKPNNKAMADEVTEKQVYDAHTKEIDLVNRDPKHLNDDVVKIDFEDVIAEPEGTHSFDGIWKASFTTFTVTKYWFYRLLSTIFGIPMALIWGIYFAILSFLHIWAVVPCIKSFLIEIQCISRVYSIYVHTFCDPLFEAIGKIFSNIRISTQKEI
UniProt Q9Z0G0: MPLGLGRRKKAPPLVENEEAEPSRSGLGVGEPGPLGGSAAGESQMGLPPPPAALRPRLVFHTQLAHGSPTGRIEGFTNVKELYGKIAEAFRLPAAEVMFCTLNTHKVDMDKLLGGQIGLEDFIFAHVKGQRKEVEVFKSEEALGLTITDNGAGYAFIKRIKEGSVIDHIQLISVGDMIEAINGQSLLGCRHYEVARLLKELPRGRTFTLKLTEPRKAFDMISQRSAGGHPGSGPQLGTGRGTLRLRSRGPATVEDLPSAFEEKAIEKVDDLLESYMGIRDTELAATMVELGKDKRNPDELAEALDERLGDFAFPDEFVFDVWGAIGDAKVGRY
UniProt Q9QUI0: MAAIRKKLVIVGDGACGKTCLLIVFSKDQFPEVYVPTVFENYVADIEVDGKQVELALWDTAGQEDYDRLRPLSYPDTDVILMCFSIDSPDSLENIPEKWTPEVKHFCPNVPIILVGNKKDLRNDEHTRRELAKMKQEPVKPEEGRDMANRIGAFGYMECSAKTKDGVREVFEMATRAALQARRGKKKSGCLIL
UniProt P35918, residues 20-1345: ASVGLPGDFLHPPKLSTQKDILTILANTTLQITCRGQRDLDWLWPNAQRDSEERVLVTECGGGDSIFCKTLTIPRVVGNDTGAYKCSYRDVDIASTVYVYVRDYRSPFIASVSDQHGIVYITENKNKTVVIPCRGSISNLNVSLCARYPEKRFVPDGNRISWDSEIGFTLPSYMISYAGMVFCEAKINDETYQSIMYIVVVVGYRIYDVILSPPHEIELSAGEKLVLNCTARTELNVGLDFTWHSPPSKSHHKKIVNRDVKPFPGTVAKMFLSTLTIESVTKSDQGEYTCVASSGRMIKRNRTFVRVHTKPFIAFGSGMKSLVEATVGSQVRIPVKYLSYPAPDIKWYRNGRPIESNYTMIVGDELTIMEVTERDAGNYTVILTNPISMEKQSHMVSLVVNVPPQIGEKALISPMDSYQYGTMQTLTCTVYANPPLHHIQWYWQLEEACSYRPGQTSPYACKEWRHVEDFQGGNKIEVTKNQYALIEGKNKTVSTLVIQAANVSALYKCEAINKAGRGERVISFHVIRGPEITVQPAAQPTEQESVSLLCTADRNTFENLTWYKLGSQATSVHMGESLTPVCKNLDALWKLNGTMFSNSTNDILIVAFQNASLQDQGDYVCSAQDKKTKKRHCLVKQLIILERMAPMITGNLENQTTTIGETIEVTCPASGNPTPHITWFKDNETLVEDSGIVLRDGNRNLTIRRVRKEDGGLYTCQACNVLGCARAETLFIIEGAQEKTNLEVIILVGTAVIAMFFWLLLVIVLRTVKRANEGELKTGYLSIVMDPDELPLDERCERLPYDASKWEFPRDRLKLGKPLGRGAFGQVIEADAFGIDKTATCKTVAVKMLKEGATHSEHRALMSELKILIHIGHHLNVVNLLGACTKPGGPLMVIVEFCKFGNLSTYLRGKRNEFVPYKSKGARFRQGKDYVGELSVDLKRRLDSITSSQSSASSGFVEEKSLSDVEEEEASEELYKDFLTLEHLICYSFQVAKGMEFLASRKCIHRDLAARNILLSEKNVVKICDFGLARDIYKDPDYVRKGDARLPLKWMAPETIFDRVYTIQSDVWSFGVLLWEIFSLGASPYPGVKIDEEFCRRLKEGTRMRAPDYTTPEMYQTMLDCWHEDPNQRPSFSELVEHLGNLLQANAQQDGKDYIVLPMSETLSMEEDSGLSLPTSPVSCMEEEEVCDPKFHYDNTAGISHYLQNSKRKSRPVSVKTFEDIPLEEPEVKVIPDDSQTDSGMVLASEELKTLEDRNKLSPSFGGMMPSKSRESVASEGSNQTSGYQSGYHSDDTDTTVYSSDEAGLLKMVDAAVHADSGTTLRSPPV
Vegr1 (Flt1) (P35969, form named): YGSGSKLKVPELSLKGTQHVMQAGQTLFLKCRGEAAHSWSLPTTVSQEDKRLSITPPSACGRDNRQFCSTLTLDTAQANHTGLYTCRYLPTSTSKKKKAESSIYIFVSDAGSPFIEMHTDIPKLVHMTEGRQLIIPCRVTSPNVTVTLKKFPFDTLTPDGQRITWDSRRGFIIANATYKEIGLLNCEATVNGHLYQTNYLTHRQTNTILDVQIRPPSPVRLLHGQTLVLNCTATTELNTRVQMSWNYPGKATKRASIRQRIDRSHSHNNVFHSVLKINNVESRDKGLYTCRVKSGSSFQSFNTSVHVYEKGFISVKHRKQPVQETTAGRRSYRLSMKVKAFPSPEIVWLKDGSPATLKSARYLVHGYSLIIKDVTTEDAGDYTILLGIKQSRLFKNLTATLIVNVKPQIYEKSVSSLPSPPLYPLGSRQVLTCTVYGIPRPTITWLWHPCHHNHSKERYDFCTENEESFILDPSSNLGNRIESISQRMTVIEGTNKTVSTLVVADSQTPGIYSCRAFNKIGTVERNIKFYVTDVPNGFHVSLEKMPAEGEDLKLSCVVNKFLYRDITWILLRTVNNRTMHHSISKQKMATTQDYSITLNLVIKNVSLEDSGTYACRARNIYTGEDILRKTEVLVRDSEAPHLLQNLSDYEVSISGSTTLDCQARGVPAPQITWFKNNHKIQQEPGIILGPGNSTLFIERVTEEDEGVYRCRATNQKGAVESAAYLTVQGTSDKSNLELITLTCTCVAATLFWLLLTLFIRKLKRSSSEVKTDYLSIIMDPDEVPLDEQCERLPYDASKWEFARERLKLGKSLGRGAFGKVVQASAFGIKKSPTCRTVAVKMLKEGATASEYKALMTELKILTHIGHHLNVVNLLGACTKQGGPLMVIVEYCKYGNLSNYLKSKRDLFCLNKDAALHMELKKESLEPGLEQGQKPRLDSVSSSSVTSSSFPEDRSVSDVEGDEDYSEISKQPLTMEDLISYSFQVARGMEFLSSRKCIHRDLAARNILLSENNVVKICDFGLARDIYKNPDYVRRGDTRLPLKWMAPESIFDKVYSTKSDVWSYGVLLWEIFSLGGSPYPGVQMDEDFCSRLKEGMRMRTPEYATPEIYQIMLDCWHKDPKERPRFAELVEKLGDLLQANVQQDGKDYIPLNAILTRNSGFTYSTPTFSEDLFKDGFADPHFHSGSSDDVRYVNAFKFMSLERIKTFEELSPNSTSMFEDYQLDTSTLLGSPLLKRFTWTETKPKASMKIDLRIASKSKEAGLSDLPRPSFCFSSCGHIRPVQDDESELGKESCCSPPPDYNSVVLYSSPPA
UniProt P34152: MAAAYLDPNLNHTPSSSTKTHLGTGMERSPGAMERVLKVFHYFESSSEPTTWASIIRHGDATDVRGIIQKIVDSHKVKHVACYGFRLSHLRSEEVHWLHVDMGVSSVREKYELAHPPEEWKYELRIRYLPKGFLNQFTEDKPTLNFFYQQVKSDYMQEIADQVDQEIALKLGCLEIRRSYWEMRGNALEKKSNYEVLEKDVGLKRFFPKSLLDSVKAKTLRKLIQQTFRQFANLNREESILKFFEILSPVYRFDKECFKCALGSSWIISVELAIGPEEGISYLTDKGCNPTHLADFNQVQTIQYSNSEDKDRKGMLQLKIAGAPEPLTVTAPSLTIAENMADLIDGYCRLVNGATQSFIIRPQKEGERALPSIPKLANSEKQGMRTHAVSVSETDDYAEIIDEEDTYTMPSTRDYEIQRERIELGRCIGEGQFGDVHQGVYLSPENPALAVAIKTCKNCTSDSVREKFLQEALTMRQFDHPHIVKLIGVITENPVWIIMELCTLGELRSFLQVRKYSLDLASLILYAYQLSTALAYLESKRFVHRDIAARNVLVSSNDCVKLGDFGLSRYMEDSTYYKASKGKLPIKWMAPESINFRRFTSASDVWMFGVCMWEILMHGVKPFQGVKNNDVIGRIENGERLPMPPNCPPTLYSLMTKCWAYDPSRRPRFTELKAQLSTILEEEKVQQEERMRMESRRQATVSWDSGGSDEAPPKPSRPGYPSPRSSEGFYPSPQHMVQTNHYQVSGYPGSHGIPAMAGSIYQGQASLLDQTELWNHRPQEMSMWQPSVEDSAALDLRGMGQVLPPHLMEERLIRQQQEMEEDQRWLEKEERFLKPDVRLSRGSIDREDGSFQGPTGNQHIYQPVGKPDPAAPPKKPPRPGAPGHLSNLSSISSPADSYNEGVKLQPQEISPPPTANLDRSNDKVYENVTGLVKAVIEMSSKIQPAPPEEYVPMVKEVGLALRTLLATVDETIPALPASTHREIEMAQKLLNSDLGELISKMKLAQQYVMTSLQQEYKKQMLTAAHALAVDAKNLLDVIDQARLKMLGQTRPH
UniProt Q8VI36: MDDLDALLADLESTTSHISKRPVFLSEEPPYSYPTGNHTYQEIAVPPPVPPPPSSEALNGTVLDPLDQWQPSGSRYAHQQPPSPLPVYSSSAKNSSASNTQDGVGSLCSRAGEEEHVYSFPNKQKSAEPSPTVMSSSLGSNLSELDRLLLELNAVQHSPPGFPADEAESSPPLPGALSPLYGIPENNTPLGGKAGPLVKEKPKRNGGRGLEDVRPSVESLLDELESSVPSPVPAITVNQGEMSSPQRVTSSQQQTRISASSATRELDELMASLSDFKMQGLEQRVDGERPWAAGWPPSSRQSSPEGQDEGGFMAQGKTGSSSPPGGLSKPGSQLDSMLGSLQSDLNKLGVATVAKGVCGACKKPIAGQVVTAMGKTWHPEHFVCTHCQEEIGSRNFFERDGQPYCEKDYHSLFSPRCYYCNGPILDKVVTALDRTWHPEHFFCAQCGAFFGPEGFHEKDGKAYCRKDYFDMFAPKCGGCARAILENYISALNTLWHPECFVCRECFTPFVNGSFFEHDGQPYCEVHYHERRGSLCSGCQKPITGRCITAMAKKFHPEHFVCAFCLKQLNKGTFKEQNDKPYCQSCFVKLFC
UniProt P52480: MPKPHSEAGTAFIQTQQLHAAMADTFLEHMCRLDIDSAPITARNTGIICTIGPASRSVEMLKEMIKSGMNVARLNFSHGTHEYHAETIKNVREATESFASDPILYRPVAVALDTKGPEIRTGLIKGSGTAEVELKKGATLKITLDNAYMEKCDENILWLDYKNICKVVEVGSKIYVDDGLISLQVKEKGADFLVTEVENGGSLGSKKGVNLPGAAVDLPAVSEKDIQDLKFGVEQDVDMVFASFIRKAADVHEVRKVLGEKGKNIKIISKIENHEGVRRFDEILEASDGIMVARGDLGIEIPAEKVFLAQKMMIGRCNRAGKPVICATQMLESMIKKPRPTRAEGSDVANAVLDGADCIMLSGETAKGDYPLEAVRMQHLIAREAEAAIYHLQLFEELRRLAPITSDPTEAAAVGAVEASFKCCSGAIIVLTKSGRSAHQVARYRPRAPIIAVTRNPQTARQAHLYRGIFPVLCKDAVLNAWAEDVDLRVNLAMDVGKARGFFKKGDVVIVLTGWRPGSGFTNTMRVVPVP
UniProt Q02248: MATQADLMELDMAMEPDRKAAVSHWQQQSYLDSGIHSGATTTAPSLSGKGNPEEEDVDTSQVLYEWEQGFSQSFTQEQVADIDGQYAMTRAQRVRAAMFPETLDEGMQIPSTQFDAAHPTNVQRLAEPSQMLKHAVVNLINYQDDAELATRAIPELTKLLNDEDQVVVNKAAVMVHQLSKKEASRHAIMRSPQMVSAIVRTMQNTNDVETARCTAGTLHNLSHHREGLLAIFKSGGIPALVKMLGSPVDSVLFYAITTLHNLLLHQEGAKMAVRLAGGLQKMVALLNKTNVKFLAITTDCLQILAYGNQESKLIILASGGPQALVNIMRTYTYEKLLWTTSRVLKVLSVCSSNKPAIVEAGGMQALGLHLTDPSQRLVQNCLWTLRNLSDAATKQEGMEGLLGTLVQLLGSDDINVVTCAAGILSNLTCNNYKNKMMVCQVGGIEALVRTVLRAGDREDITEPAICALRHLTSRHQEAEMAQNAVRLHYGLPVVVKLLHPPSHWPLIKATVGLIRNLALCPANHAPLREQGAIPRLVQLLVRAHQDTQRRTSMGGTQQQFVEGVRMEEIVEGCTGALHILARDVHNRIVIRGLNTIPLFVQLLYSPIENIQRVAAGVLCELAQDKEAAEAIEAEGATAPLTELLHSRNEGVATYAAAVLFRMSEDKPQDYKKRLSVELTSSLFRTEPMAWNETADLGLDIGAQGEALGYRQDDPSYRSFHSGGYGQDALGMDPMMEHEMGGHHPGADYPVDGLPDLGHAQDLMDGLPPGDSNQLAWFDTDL

Sequences and labels used below:
B1: Nrp1, P97333 22-923 (receptor)
chain: FRSDKCGGTIKIENPGYLTSPGYPHSYHPSEKCEWLIQAPEPYQRIMINFNPHFDLEDRDCKYDYVEVIDGENEGGRLWGKFCGKIAPSPVVSSGPFLFIKFVSDYETHGAGFSIRYEIFKRGPECSQNYTAPTGVIKSPGFPEKYPNSLECTYIIFAPKMSEIILEFESFDLEQDSNPPGGMFCRYDRLEIWDGFPEVGPHIGRYCGQKTPGRIRSSSGVLSMVFYTDSAIAKEGFSANYSVLQSSISEDFKCMEALGMESGEIHSDQITASSQYGTNWSVERSRLNYPENGWTPGEDSYKEWIQVDLGLLRFVTAVGTQGAISKETKKKYYVKTYRVDISSNGEDWISLKEGNKAIIFQGNTNPTDVVLGVFSKPLITRFVRIKPVSWETGISMRFEVYGCKITDYPCSGMLGMVSGLISDSQITASNQADRNWMPENIRLVTSRTGWALPPSPHPYTNEWLQVDLGDEKIVRGVIIQGGKHRENKVFMRKFKIAYSNNGSDWKTIMDDSKRKAKSFEGNNNYDTPELRTFSPLSTRFIRIYPERATHSGLGLRMELLGCEVEAPTAGPTTPNGNPVDECDDDQANCHSGTGDDFQLTGGTTVLATEKPTIIDSTIQSEFPTYGFNCEFGWGSHKTFCHWEHDSHAQLRWSVLTSKTGPIQDHTGDGNFIYSQADENQKGKVARLVSPVVYSQSSAHCMTFWYHMSGSHVGTLRVKLRYQKPEEYDQLVWMVVGHQGDHWKEGRVLLHKSLKLYQVIFEGEIGKGNLGGIAVDDISINNHISQEDCAKPTDLDKKNTEIKIDETGSTPGYEGEGEGDKNISRKPGNVLKTLDPILITIIAMSALGVLLGAVCGVVLYCACWHNGMSERNLSALENYNFELVDGVKLKKDKLNPQSNYSEA
B2: platelet and endothelial cell adhesion molecule-1 (Pecam1) (protein, UniProt Q08481 18-727)
chain: EENSFTINSIHMESLPSWEVMNGQQLTLECLVDISTTSKSRSQHRVLFYKDDAMVYNVTSREHTESYVIPQARVFHSGKYKCTVMLNNKEKTTIEYEVKVHGVSKPKVTLDKKEVTEGGVVTVNCSLQEEKPPIFFKIEKLEVGTKFVKRRIDKTSNENFVLMEFPIEAQDHVLVFRCQAGILSGFKLQESEPIRSEYVTVQESFSTPKFEIKPPGMIIEGDQLHIRCIVQVTHLVQEFTEIIIQKDKAIVATSKQSSEAVYSVMAMVEYSGHYTCKVESNRISKASSIMVNITELFPKPKLEFSSSRLDQGELLDLSCSVSGTPVANFTIQKEETVLSQYQNFSKIAEESDSGEYSCTAGIGKVVKRSGLVPIQVCEMLSKPSIFHDAKSEIIKGHAIGISCQSENGTAPITYHLMKAKSDFQTLEVTSNDPATFTDKPTRDMEYQCRADNCHSHPAVFSEILRVRVIAPVDEVVISILSSNEVQSGSEMVLRCSVKEGTSPITFQFYKEKEDRPFHQAVVNDTQAFWHNKQASKKQEGQYYCTASNRASSMRTSPRSSTLAVRVFLAPWKKGLIAVVVIGVVIATLIVAAKCYFLRKAKAKQKPVEMSRPAAPLLNSNSEKISEPSVEANSHYGYDDVSGNDAVKPINQNKDPQNMDVEYTEVEVSSLEPHQALGTRATETVYSEIRKVDPNLMENRYSRTEGSLNGT
B3: p120-catenin (Ctnnd1) (protein, UniProt P30999 1-938)
chain: MDDSEVESTASILASVKEQEAQFEKLTRALEEERRHVSAQLERVRVSPQDANSLMANGTLTRRHQNGRFVGDADLERQKFSDLKLNGPQDHNHLLYSTIPRMQEPGQIVETYTEEDPEGAMSVVSVETTDDGTTRRTETTVKKVVKTMTTRTVQPVPMGPDGLPVDASAVSNNYIQTLGRDFRKNGNGGPGPYVGQAGTATLPRNFHYPPDGYGRHYEDGYPGGSDNYGSLSRVTRIEERYRPSMEGYRAPSRQDVYGPQPQVRVGGSSVDLHRFHPEPYGLEDDQRSMGYDDLDYGMMSDYGTARRTGTPSDPRRRLRSYEDMIGEEVPPDQYYWAPLAQHERGSLASLDSLRKGMPPPSNWRQPELPEVIAMLGFRLDAVKSNAAAYLQHLCYRNDKVKTDVRKLKGIPILVGLLDHPKKEVHLGACGALKNISFGRDQDNKIAIKNCDGVPALVRLLRKARDMDLTEVITGTLWNLSSHDSIKMEIVDHALHALTDEVIIPHSGWEREPNEDCKPRHIEWESVLTNTAGCLRNVSSERSEARRKLRECDGLVDALIFIVQAEIGQKDSDSKLVENCVCLLRNLSYQVHREIPQAERYQEALPTVANSTGPHAASCFGAKKGKDEWFSRGKKPTEDPANDTVDFPKRTSPARGYELLFQPEVVRIYISLLKESKTPAILEASAGAIQNLCAGRWTYGRYIRSALRQEKALSAIAELLTSEHERVVKAASGALRNLAVDARNKELIGKHAIPNLVKNLPGGQQNSSWNFSEDTVVSILNTINEVIAENLEAAKKLRETQGIEKLVLINKSGNRSEKEVRAAALVLQTIWGYKELRKPLEKEGWKKSDFQVNLNNASRSQSSHSYDDSTLPLIDRNQKSDKKPDREEIPMSNMGSNTKSLDNNYSTLNERGDHNRTLDRSGDLGDMEPLKGAPLMQKI
B4: Vascular endothelial (VE)-cadherin (Cdh5) (protein, UniProt P55284 46-784)
chain: DWIWNQMHIDEEKNESLPHYVGKIKSNVNRQNAKYVLQGEFAGKIFGVDANTGNVLAYERLDREKVSEYFLTALIVDKNTNKNLEQPSSFTVKVHDINDNWPVFSHQVFNASVPEMSAIGTSVIRVTAVDADDPTVAGHATVLYQIVKGNEYFSIDNSGLIFTKIKNLDREKQAEYKIVVETQDALGLRGESGTATVMIRLEDINDNFPVFTQSTYTFSVPEDIRVGKPLGFLTVVDPDEPQNRMTKYSIMQGEYRDTFTIETDPKRNEGIIKPTKSLDYEVIQQYTFYIEATDPTIRYEYLSSTSGKNKAMVTINVLDVDEPPVFQRHFYHFKLPENQKKPLIGTVVAKDPDKAQRSIGYSIRKTSDRGQFFRITKQGNIYNEKELDRETYAWYNLTVEANELDSRGNPVGKESIVQVYIEVLDENDNPPEFAQPYEPKVCENAAQGKLVVQISATDKDVVPVNPKFKFALKNEDSNFTLINNHDNTANITVKYGQFNREHAKFHYLPVLISDNGVPSLTGTSTLTVGVCKCNEQGEFTFCEEMAAQAGVSIQALVAIFLCILTITVITLLIILRRRIRKQAHAHSKSALEIHEQLVTYDEEGGGEMDTTSYDVSVLNSVRGGSTKPLRSTMDARPAVYTQVQKPPRLAPGLHGGPREMATMIDVKKEEADNDGGGPPYDTLHIYGYEGAESIAESLSSLSTNSSDSDIDYDFLNDWGPRFKMLAELYGSDPQEELII

No constants are given. Whether binding was seen depends on the method and setting. Binding seen in cells or lysates may run through a third protein. Here binding means that the protein was enriched with, or labelled near, the bait; the list need not be complete.

The target in one assay is T1, Neuropilin 2 (mouse (endogenous in immortalised mouse lung microvascular ECs)), O35375.
T1 chain: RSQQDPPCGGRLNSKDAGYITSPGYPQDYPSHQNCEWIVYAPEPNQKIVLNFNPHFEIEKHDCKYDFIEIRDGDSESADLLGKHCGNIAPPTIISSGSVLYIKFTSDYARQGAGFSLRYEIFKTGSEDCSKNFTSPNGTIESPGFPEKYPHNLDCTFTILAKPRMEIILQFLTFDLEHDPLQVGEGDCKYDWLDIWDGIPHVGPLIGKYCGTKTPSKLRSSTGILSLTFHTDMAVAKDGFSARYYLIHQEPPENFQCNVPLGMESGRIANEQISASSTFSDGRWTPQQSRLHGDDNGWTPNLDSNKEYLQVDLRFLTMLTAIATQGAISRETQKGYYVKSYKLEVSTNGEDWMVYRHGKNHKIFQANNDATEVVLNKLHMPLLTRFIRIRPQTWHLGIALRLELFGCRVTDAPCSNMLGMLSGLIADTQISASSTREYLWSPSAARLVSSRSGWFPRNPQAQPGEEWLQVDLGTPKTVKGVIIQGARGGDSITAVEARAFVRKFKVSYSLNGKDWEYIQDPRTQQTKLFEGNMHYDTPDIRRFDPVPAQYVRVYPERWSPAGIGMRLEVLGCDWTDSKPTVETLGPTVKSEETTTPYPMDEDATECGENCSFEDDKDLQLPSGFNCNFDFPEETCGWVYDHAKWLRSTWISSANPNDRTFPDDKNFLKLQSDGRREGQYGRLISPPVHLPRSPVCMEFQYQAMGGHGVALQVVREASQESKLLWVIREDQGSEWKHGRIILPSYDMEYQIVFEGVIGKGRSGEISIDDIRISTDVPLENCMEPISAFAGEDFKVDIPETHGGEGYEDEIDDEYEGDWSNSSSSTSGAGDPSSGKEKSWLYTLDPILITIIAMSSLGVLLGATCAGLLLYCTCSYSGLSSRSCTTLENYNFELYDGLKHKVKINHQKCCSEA
As to the kind of experiment: affinity purification with mass spectrometry. To be noted: remark: other sources report otherwise.
With B1, the binding entry is reported as “binds”.

The target in another assay is Neuropilin 2 (mouse (endogenous in immortalised mouse lung microvascular ECs)) (UniProt O35375). As to the kind of experiment: affinity purification with mass spectrometry.
Conditions: not given
For “Caveolin-1 (Cav1) (from UniProt P49817 1-178)”, the binding result is “binds”. Same read-out and setting: then Gipc1 (from UniProt Q9Z0G0 1-333), with “binds”; and “PlexinD1 (Plxnd1) (from UniProt Q3UH93 49-1925) (receptor)”, with “binds”.

For RhoA (from UniProt Q9QUI0 1-193), the binding entry is “binds”. Still for that read-out and setting: then “Vegfr2 (Kdr) (from UniProt P35918 20-1345) (receptor)”, with “binds”.

Take “Vegfr3 (Flt4) (from UniProt P35917 25-1363) (receptor)”: the binding entry is listed as “binds”. On the same count and under the same terms, then “Vegr1 (Flt1) (from UniProt P35969 23-1333) (receptor)”, with “binds”. Still for that read-out and setting: to “focal adhesion kinase (FAK/Ptk2) (from UniProt P34152 1-1052) (enzyme)” belongs “binds”.

“paxillin (Pxn) (from UniProt Q8VI36 1-591)”: the binding result was “binds”. On the same count and under the same terms, to “pyruvate kinase (Pkm) (from UniProt P52480 1-531) (enzyme)” belongs “binds”. The same measure, in the same setting: then “α catenin (Ctnna1) (from UniProt P26231 1-906)”, with “binds”.

For the molecule “β-catenin (Ctnnb1) (from UniProt Q02248 1-781)”, the binding result is on record as “binds”. In the case of B2, the binding entry is recorded as “binds”. Still for that read-out and setting: then B3, with “binds”; and B4, with “binds”.
